Data as given in PubChem BioAssay AID2685 (National Center for Advancing Translational Sciences (NCATS), 2010).
Some of the results follow. Further columns of the screen follow, without active or inactive calls. Most of these compounds were active or inconclusive in the main read-out, so they are no random draw. Potencies come from curve fits of mixed quality, noted in brackets.

Assay: qHTS Assay for Lipid Storage Modulators in Drosophila S3 Cells;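 for cell number change: cells counted by Cell Tracker Red CMTPX staining in the red channel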
Settings: BODIPY lipid droplet fluorescence, 18-24 h; for cell number change: measured here: cell count max response, cells fed with added oleic acid
In short: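 Drosophila S3 cells got compounds at several concentrations plus oleic acid (400 uM solution). Laser-scanning cytometry with 488 nm excitation read lipid droplets at 500-530 nm and cells at 575-640 nm. Percent activity was relative to 20 uM Triacsin C.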

[1] = measured here: cell number channel AC50, cells fed with added oleic acid
[2] = measured here: lipid fluorescence (Fed channel) AC50, cells fed with added oleic acid

SMILES | cell number change | AC50 [1] | AC50 [2]
C=CCNC(=O)C1CCN(S(=O)(=O)c2ccccc2)CC1 | -82.7% | 23.1 µM [falling, single point] | –
CCOc1cc(/C=N/NC(=O)C2CC2)ccc1OC(C)C | 10.1% | 0.82 µM [rising, single point] | 0.731 µM [rising, single point]
COCCNC(=O)CSC1=N/C(=C/c2ccc(Cl)c(Cl)c2)C(=O)N1c1ccccc1F | -21.1% | – | 29.1 µM [falling, single point]
Cc1cc(C)n(-c2cc(N3CCN(S(=O)(=O)c4ccc(Br)cc4)CC3)ccc2[N+](=O)[O-])n1 | – | 6.51 µM [rising, single point] | –
Cc1cccc(NS(=O)(=O)c2cc(C(=O)N3CCN(C)CC3)ccc2C)c1 | 5.95% | – | –
CCCn1nc(NS(=O)(=O)c2ccccc2)c2cc3ccccc3nc21 | 0.914% | – | 0.164 µM [rising, full curve, poor fit]
CN(C)CCCn1cnc2c1c(=O)[nH]c(=O)n2Cc1ccccc1 | 5.31% | – | –
CC(C)Cn1c(N)c(C(=O)CSc2cc(Cl)ccc2Cl)c(=O)n(C)c1=O | 19.4% | 1.84 µM [rising, partial curve, poor fit] | 20.6 µM [rising, partial curve, poor fit]
Cc1ccc(N/C=C/C(=O)C(C)(C)C)c(O)c1 | -62.6% | 16.4 µM [falling, partial curve] | 20.6 µM [falling, partial curve]
COc1ccccc1NC(=O)C(C)OC(=O)Cn1cnc2c1c(=O)n(C)c(=O)n2C (stereo not drawn) | -25% | – | 29.1 µM [falling, single point]
CC(C)CN(C(=O)c1nn(C)c(=O)c2ccccc12)c1nc2ccccc2s1 | 6.45% | – | –
CCN(C(=O)COC(=O)/C=C/c1cnc2ccccc2n1)C1CCS(=O)(=O)C1 (stereo not drawn) | – | – | 0.231 µM [falling, full curve, poor fit]
O=C(CN(c1cccc(C(F)(F)F)c1)S(=O)(=O)c1ccc(Cl)c([N+](=O)[O-])c1)NCc1ccccc1Cl | -7.58% | – | 29.1 µM [falling, single point]
CC(=O)c1cccc(NC(=O)N2CCCC2C(=O)NCc2ccc(F)cc2)c1 (stereo not drawn) | -4.2% | – | 5.8 µM [rising, full curve]
O=C(N/N=C/c1coc2ccccc2c1=O)c1ccncc1 | -16.8% | – | 29.1 µM [falling, single point]
CCCOc1ccc(C(F)(F)F)cc1NS(=O)(=O)c1ccc(Cl)nc1 | 80.3% | – | –
COc1cc(/C=N/OCC(=O)NC2CCS(=O)(=O)C2)ccc1OC(F)F (stereo not drawn) | – | – | 3.66 µM [falling, partial curve]
Cn1c(/C(C#N)=C/c2ccc(-c3ccc(S(N)(=O)=O)cc3)o2)nc2ccccc21 | -49.1% | 5.8 µM [rising, partial curve] | 29.1 µM [falling, single point]

SMILES | cell number change | AC50 [1] | AC50 [2]
COc1cc(/C=N/NC(=O)c2cc(-c3ccccc3OC(C)C)nc3ccccc23)ccc1O | 12.1% | – | 1.03 µM [falling, full curve, poor fit]
CCN(C(=O)COC(=O)c1cn(-c2ccccc2)nc1-c1ccccc1)C1CCS(=O)(=O)C1 (stereo not drawn) | – | – | 18.4 µM [rising, single point]
CC(/C=N/NC(=O)c1cc(C(C)C)[nH]n1)=C\c1ccccc1 | -43.2% | 18.4 µM [falling, partial curve, poor fit] | –
CCOc1ccc2nc(SCC(=O)N(C)C3CCS(=O)(=O)C3)[nH]c2c1 (stereo not drawn) | -28.5% | – | 23.1 µM [falling, partial curve, poor fit]
COc1ccc(NC(=O)CCN2C(=O)[C@@H]3[C@H](C2=O)[C@H]2C=C[C@@H]3C2)cc1 | 21.9% | 0.731 µM [rising, full curve, poor fit] | 0.82 µM [rising, partial curve, poor fit]
COc1ccc(-c2nnc3n2CCCCC3)cc1 | 5.22% | – | 29.1 µM [rising, single point]
CCOC(=O)c1ccccc1NC(=O)CSc1nc2c(c(=O)n(C)c(=O)n2C)n1C | – | 0.731 µM [rising, single point] | –
O=C(O)c1cccc(N/N=C/c2cccnc2)c1 | -30.5% | 1.03 µM [falling, full curve, poor fit] | 3.66 µM [falling, full curve, poor fit]
Cc1cc(C)c(C)c(OCc2nc(-c3cccnc3)no2)c1 | -19.5% | – | –
COc1ccc(-n2c(C)cc(C(=O)CN3CCC(C)CC3)c2C)cc1 | -85.2% | – | –
O=C(CCNS(=O)(=O)c1cccs1)N1CCc2ccccc2C1 | 13.9% | – | 1.3 µM [rising, full curve, poor fit]
Cc1ccc(S(=O)(=O)NCC(=O)NCc2cc(=O)n(C)c(=O)n2C)cc1C | 8.11% | – | 18.4 µM [rising, single point]
CCOc1ccc(NC(=O)CN(C)C(=O)c2cn(-c3ccccc3)nc2-c2cccs2)cc1OCC | -32.3% | 0.00517 µM [falling, full curve, poor fit] | –
CCCC1=NN2C(=N)/C(=C\c3cc(C)n(-c4cc(C)cc(C)c4)c3C)C(=O)N=C2S1 | 25.1% | – | 0.13 µM [rising, full curve, poor fit]
N/C(Cc1ccc([N+](=O)[O-])cc1)=N\OC(=O)c1ccccc1Br | -0.2% | – | 20.6 µM [rising, partial curve, poor fit]
C=CCc1c(C)nc2c(-c3ccccc3)cnn2c1N1CCOCC1 | 17.9% | – | 3.26 µM [rising, full curve, poor fit]
CCOC(=O)c1cnc2ccc(OCC)cc2c1N1CCN(C)CC1 | -37.5% | 0.164 µM [falling, full curve, poor fit] | 0.13 µM [falling, full curve, poor fit]
CC(=O)N(C)c1ccc(NC(=O)Nc2cccc3ccccc23)cc1 | -8.38% | – | 0.092 µM [rising, full curve, poor fit]

Two of the compounds above, tab-delimited.
SMILES	cell number change	AC50 [1]	AC50 [2]
CC(/C=N/NC(=O)c1cc(C(C)C)[nH]n1)=C\c1ccccc1	-43.2%	18.4 µM [falling, partial curve, poor fit]	–
Cc1cc(C)c(C)c(OCc2nc(-c3cccnc3)no2)c1	-19.5%	–	–
